The list shows a part of the results. These are further read-outs of the screen, such as a control signal, another cell line or another target. No call is given for them. The list favours compounds with an active or inconclusive main result. Words in brackets tell the shape of the fitted curve; partial curves, single points and poor fits give uncertain potencies.
Assay: qHTS Assay for Modulators of Lamin A Splicing
Details: HeLa LMNA splicing GFP/RFP minigene ratio, 48 h
Method in brief: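 S3 HeLa stable clones carrying a lamin A-EGFP splicing minigene plus DsRed2 were seeded at 600 cells/well in Opti-MEM with 2% FBS, pin-dosed and incubated 48 h at 37°C. Acumen cytometry (488 nm) gave the GFP/RFP total-intensity ratio.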

[1] = measured here: GFP splicing reporter channel
[2] = measured here: RFP viability control channel

Structure (SMILES)	AC50 [1]	AC50 [2]
COc1ccccc1CNC(=O)C(=O)NCC(c1cccnc1)N1CCN(c2ccc(F)cc2)CC1 (stereo unspecified)	35.5 µM [falling, partial curve]	28.2 µM [falling, partial curve]
O=C(O)c1ccc(N=Nc2c(O)[nH]c3ccccc23)cc1	7.94 µM [falling, partial curve, poor fit]	8.91 µM [falling, partial curve, poor fit]
CNC(=O)C(=O)NCCN1CCN(C(=O)c2ccc([N+](=O)[O-])cc2)CC1		8.91 µM [falling, partial curve, poor fit]
CC(NC(=O)COc1ncnc2cc([N+](=O)[O-])ccc12)c1ccccc1 (stereo unspecified)	5.62 µM [rising, single point]	
O=C(CN(c1cccc(C(F)(F)F)c1)S(=O)(=O)c1ccccc1)Nc1cccc(Cl)c1	35.5 µM [falling, single point]	20 µM [falling, single point]
NC(=O)C1CCN(Cc2nc(-c3cccs3)no2)CC1	0.562 µM [rising, full curve]	
COCCN1CSC(=S)N(Cc2ccco2)C1	3.98 µM [falling, full curve]	28.2 µM [falling, single point]
NS(=O)(=O)c1ccc(NC(=O)CN2CCN(c3ccc(F)cc3)CC2)cc1		0.141 µM [falling, full curve, poor fit]
Cc1cccn2c(=O)cc(COc3ccc(NC(=O)C(C)Oc4ccccc4)cc3)nc12 (stereo unspecified)	22.4 µM [falling, single point]	35.5 µM [falling, single point]
N#CC(C(=O)c1ccc(S(=O)(=O)N2CCCCCC2)cc1)c1nc2ccccc2[nH]1 (stereo unspecified)		5.01 µM [rising, full curve]
CC(=O)c1sc(NC(=O)COc2ccc(C(C)C)c(C)c2)nc1C	0.891 µM [falling, full curve, poor fit]	
COc1cc(C=O)ccc1OCCCCOc1ccccc1[N+](=O)[O-]	0.501 µM [rising, full curve, poor fit]	
S=C(c1ccc(-c2cc(Cl)ccc2Cl)o1)N1CCCCC1	1.58 µM [falling, partial curve]	2 µM [falling, partial curve]
COc1ccc(-n2c(SCC(=O)NC3CCCCC3)nc3c([nH]c4ccccc43)c2=O)cc1		12.6 µM [falling, single point]
Cc1ccc(S(=O)(=O)C(CNC(=O)COc2ccc(Cl)cc2)c2ccco2)cc1 (stereo unspecified)	28.2 µM [falling, partial curve, poor fit]	12.6 µM [falling, partial curve, poor fit]
Cc1ccc(CNC(=O)c2cccc(NC(=O)N3CCSc4ncccc43)c2)cc1	12.6 µM [falling, single point]	4.47 µM [falling, partial curve, poor fit]

Structure (SMILES)	AC50 [1]	AC50 [2]
COc1ccc(CC(=O)N2CCC(Nc3nc4ccccc4n3Cc3ccc(F)cc3)CC2)cc1		35.5 µM [rising, single point]
O=C1c2ccccc2NC2(CCCC2)N1NS(=O)(=O)c1ccccc1	1.41 µM [falling, full curve, poor fit]	
COc1ccc(CCn2c(N)c(S(=O)(=O)c3cccs3)c3nc4ccccc4nc32)cc1OC		17.8 µM [falling, partial curve, poor fit]
Cc1cccc(NC(=O)c2cc3c(=O)n4ccccc4nc3n(CC(C)C)c2=N)c1		0.00316 µM [falling, full curve, poor fit]
Cc1cc(O)cc(O)c1C=NCc1ccco1		22.4 µM [rising, single point]
CC(C)(C)c1nc(SCC(=O)NCc2ccco2)c2ccccc2n1	11.2 µM [rising, single point]	15.8 µM [rising, partial curve, poor fit]
O=C(NCC1CCCO1)c1cc(-c2ccccc2)on1 (stereo unspecified)		35.5 µM [falling, single point]
COc1cc(C(=O)NNC(=O)C2CC=CCC2C(=O)O)cc(OC)c1OC (stereo unspecified)	31.6 µM [rising, single point]	31.6 µM [rising, single point]
O=c1oc2ccccc2cc1NCc1ccccc1O		20 µM [rising, single point]
Cc1c(C(=O)NC(Cc2ccccc2)c2nc3ccccc3[nH]2)cccc1[N+](=O)[O-] (stereo unspecified)	3.55 µM [falling, partial curve]	3.16 µM [falling, partial curve, poor fit]
Cc1ccc(S(=O)(=O)CCC(=O)NCc2ccccc2Cl)cc1	0.0112 µM [falling, full curve, poor fit]	0.0501 µM [falling, full curve, poor fit]
Cn1c(/C(C#N)=C/c2ccncc2)nc2ccccc21	35.5 µM [falling, partial curve, poor fit]	0.0224 µM [falling, full curve, poor fit]
O=C(Nc1ccccc1Cl)c1cc[n+](Cc2ccc([N+](=O)[O-])cc2)cc1	3.16 µM [rising, partial curve]	
O=C(/C=C/c1ccccc1[N+](=O)[O-])NCCN1C(=O)S/C(=C\c2ccc(F)cc2)C1=O	0.794 µM [falling, full curve, poor fit]	1.26 µM [falling, full curve, poor fit]
COc1ccc(CCNC(=O)c2ccc(-c3ccc([N+](=O)[O-])cc3Cl)o2)cc1OC		5.01 µM [rising, full curve]
CO[C@H]1C[C@@H](O[C@@H]2[C@H](C)[C@H](O[C@@H]3O[C@@H](C)C[C@@H](N(C)C)[C@@H]3O)[C@H](C)C[C@]3(CO3)C(=O)[C@H](C)[C@H](O)[C@H](C)[C@H](C)OC(=O)[C@@H]2C)O[C@@H](C)[C@H]1O		0.00158 µM [rising, full curve, poor fit]

Looked up above:
Cc1cccc(NC(=O)c2cc3c(=O)n4ccccc4nc3n(CC(C)C)c2=N)c1 | AC50 [2]: 0.00316 µM [falling, full curve, poor fit]
Cc1c(C(=O)NC(Cc2ccccc2)c2nc3ccccc3[nH]2)cccc1[N+](=O)[O-] (stereo unspecified) | AC50 [2]: 3.16 µM [falling, partial curve, poor fit]

— PubChem BioAssay AID1487 (National Center for Advancing Translational Sciences (NCATS), 2009)
